# Paper PMC12040169 (PLOS Biology, 2025)
# The list shows a part of the results.
# System: T1, CTL2-GFP (C. trachomatis L2/434/Bu, GFP-expressing)
# T1 construct: L2/434/Bu, GFP-expressing
# Set-up: species or system HeLa; Intracellular C. trachomatis growth in HeLa cells, bulk GFP fluorescence relative to DMSO
# Details: bulk GFP, single well; 28.5 h, 10 µM; inhibitor
row,Compound,% of control remaining
1,CCCc1occc1C(=O)N1CCOCC1C(=O)O (centres unmarked) [CBK304151],114.505%
2,Cc1nnc(Sc2nc3ccccc3nc2C(F)(F)F)s1 [CBK093774],134.992%
3,Cn1ccnc1C(NC(=O)N1CCCC1)c1ccc(F)c(F)c1 (centres unmarked) [CBK283782],100.728%
4,COc1cc(C(=O)O)cc2c1NC(c1ccc(C(=O)O)cc1)C1CC=CC21 (centres unmarked) [CBK287018],138.032%
5,Cc1ccc(-c2nnc(-c3cccc(NC(=O)CSCc4ccc(Cl)cc4)c3)o2)cc1 [CBK266789],142.866%
6,CC(=O)c1ccc(-c2ccc(C(=O)NCC3COc4ccccc4O3)c(NCc3cccnc3)n2)s1 (centres unmarked) [CBK076608],160.533%
7,COC(=O)CCc1ccc(S(=O)(=O)N2CCCN(Cc3c[nH]c4ccc(Cl)cc34)CC2)cc1 [CBK063000],100.704%
8,Clc1cc(N2CCCC2)ncn1 [CBK083597],118.323%
9,O=C(Cn1ccc(=O)[nH]c1=O)NCc1cccnc1OCC(F)(F)F [CBK304565],133.887%
10,COc1ccc(C(=O)N2CC[C@H]3NC(=O)N(c4ccc(F)cc4)C(=O)[C@H]32)cc1 [CBK289325],151.617%
11,O=C(Nc1cc2cccnc2c(Br)n1)Nc1ccc(F)cc1C(F)(F)F [CBK063287],139.702%
12,CSc1ccc(-n2ncc(-c3ccc(Cl)cc3)n2)cc1 [CBK112782],102.782%
13,CNC(=O)c1c(NC(=O)c2nc(SCc3ccccc3)ncc2Cl)sc2c1CCCC2 [CBK269087],148.503%
14,Cc1nn(C)c(C)c1-c1ccnc(NCCC2(O)CCN(C)CC2)n1 [CBK307659],95.4527%
15,c1cnc(-c2ccoc2)c(NCCCN2CCOCC2)n1 [CBK036631],100%
16,Cc1ccc(OCC(=O)Nc2ccc3c(c2)C(=O)Nc2ccccc2O3)cc1 [CBK287660],113.592%
17,CCCCn1c(=O)c(C(=O)Nc2ccccc2S(N)(=O)=O)c(O)c2ccccc21 [CBK262260],116.074%
18,O=[N+]([O-])c1ccc(S(=O)(=O)Nc2nnc(C3CCCCC3)s2)cc1 [CBK200049],138.173%
19,CC(=O)N1CCc2c(c3cccc(Br)c3n2Cc2ccccc2)C1 [CBK024402],118.637%
20,CN1CCN(C2CC(=O)N(c3ccc(Oc4ccccc4)cc3)C2=O)CC1 (centres unmarked) [CBK265434],129.849%
21,COc1cccc(C2CC(=O)Nc3n[nH]cc32)c1OC (centres unmarked) [CBK287889],118.739%
22,CN(C)S(=O)(=O)N1CCN(c2ccc([N+](=O)[O-])c(NCCc3ccccc3)c2)CC1 [CBK266498],118.2%
23,Cc1cnc(NC(=O)C(C)Oc2ccccc2)s1 (centres unmarked) [CBK288250],108.746%
24,Clc1cc(Nc2ccc3[nH]ccc3c2)n2nccc2n1 [CBK037009],123.661%
25,CC(=O)Nc1cccc(NC(=S)Nc2ccc(S(N)(=O)=O)cc2)c1 [CBK267091],126.754%

# For convenience, some entries already given:
row,Compound,% of control remaining
18,O=[N+]([O-])c1ccc(S(=O)(=O)Nc2nnc(C3CCCCC3)s2)cc1 [CBK200049],138.173%
19,CC(=O)N1CCc2c(c3cccc(Br)c3n2Cc2ccccc2)C1 [CBK024402],118.637%

# Later entries.

row,Compound,% of control remaining
1,Cc1cc(C)nc(-n2ncc(C#N)c2NC(=O)c2ccccc2)n1 [CBK288135],109.328%
2,CCCSc1nc2cc(C(=O)OC)ccc2c(=O)n1CC1CCCO1 (centres unmarked) [CBK306031],149.258%
3,Cc1cc(CN(C)Cc2cnn(-c3ccc(Cl)cc3)c2)n[nH]1 [CBK281912],130.825%
4,O=C(COc1ccccc1)NC(=S)Nc1cc(-c2nc3ncccc3o2)ccc1Cl [CBK264380],100%
5,CN(CCCN1CCC(C(=O)NC(c2cccnc2)c2ccc3c(c2)OCO3)CC1)S(C)(=O)=O (centres unmarked) [CBK148505],157.948%
6,Cc1nc(NS(=O)(=O)c2cc(Cl)sc2Cl)sc1C(=O)N1CCN(C)CC1 [CBK045818],115.424%
7,Cc1ccc(C(=O)NCCN2CCOCC2)c(N2CCN(C(=O)c3ccco3)CC2)n1 [CBK076312],91.2653%
8,Cc1nc(NS(=O)(=O)c2c(C)noc2C)sc1C(=O)N1CCOCC1 [CBK050574],118.455%
9,CCOc1cccc(-c2cncc(N3CCN(c4ccccn4)CC3)n2)c1 [CBK065985],125.253%
10,Cc1ccccc1NC(=O)Cc1nnc(SCC(=O)c2ccccc2)n1C [CBK269719],111.092%
11,CSCCCNC(=O)N1CCN(Cc2ccccc2)CC1 [CBK155623],110.319%
12,COC(=O)c1c(NC(=S)NCc2cccnc2)sc(C)c1C [CBK267029],157.813%
13,Cc1ccc([N+](=O)[O-])cc1NC1OC(C(O)CO)C(O)C1O (centres unmarked) [CBK262031],100%
14,O=C(N/N=C/c1cccc(OC(=O)c2cccc(Br)c2)c1)c1ccncc1 [CBK262249],97.568%
15,NC(=O)Nn1c(CCC(=O)O)ccc1-c1cccs1 [CBK266019],201.867%
16,FC(F)(F)c1cccc(NC(=S)Nc2ccc(Cc3ccncc3)cc2)c1 [CBK267251],114.78%
17,CCn1c2cc(C)sc2c2cnn(CC(=O)NC3CC3)c(=O)c21 [CBK284170],118.401%
18,Nc1ncc(Br)nc1N[C@@H](CO)c1ccccc1 [CBK074321],114.784%
19,Cc1ccc(-c2nnc(CN3C(=O)C4(CC(=O)N(Cc5ccccc5)C4=O)c4ccccc43)o2)cc1 (centres unmarked) [CBK075749],119.243%
20,CCCN1CC(NS(=O)(=O)c2cc(-n3cccn3)ccc2C)CC1=O (centres unmarked) [CBK306835],121.899%
21,O=C1CN(Cc2ccc(Cl)cc2)CCO1 [CBK023036C],170.859%
22,OC12CCCCC1CN(CC1=Cc3ccccc3OC1)CC2 (centres unmarked) [CBK282954],106.648%
23,COc1ccc(CN2C(=O)CO[C@H]3CN(C(=O)COc4ccccc4)C[C@H]32)cc1 [CBK289262],88.8468%
24,CCC1CN(C(C)=O)CCC1NCc1ccc(OCC(N)=O)cc1 (centres unmarked) [CBK305168],112.455%
25,CC(C)CN(C)CC(=O)NC1(c2ccccc2)CCC1 [CBK067455T],114.986%
